Laboratory results reported in US20210093714A1, “Combination and method for inhibiting the cancer cells” (NATIONAL TAIWAN UNIVERSITY, priority 2013, published 2021).
Results are given in words; binding and its absence hold for the method and conditions named. Some binding calls cover weakened binding; strength is not graded here.

Molecular target: Epidermal growth factor receptor (EGFR) (human) (UniProt P00533)
Assay: FACS and western blot, A549 cells, rCT 100 ng/mL (FIG. 2G)

B1: CT domain of CCN2 (carboxyl-terminal cystine knot domain) (ligand, human, UniProt P29279 252-349, looked up)
chain: KGKKCIRTPKISKPIKFELSGCTSMKTYRAKFCGVCTDGRCCTPHRTTTLPVEFKCPDGEVMKKNMMFIKTCACHYNCPGDNDIFESLYYRKMYGDMA
  binding: binds
